Laboratory results from PMC10235469.
No constants are given. Whether binding was seen depends on the method and setting. Binding seen in cells or lysates may run through a third protein. Binding calls can cover weak binding; strength is not graded here.

Biological target: Flag-SIRT3 (Sirtuin 3)
Assay: co-IP; HEK293T cells co-expressing Flag-SIRT3 with or without XBP1s; antibody or normal IgG added to 1 mg precleared cell lysate overnight at 4°C, Protein A/G-Plus Beads 3 hours at 4°C; blots probed for SIRT3 or XBP1s

B1: spliced form of X-box binding protein 1 (XBP1s) (protein, UniProt P17861-2 1-376)
chain: MVVVAAAPNPADGTPKVLLLSGQPASAAGAPAGQALPLMVPAQRGASPEAASGGLPQARKRQRLTHLSPEEKALRRKLKNRVAAQTARDRKKARMSELEQQVVDLEEENQKLLLENQLLREKTHGLVVENQELRQRLGMDALVAEEEAEAKGNEVRPVAGSAESAAGAGPVVTPPEHLPMDSGGIDSSDSESDILLGILDNLDPVMFFKCPSPEPASLEELPEVYPEGPSSLPASLSLSVGTSSAKLEAINELIRFDHIYTKPLVLEIPSETESQANVVVKIEEAPLSPSENDHPEFIVSVKEEPVEDDLVPELGISNLLSSSHCPKPSSCLLDAYSDCGYGGSLSPFSDMSSLLGVNHSWEDTFANELFPQLISV
binding: binds
